# Measured values as given in patent US8507509B2, “Saturated and insaturated bi- or tricyclic aryloxyacetamine derivatives and their use as fungicides” (Syngenta Crop Protection LLC, priority 2007, dated 2013).
# Some results were stated once for a whole list of compounds, not compound by compound. For part of these data: For at least one compound, name, drawing or mass did not settle the structure.
# How the values were obtained:
# Septoria tritici = Septoria tritici (leaf blotch), liquid culture growth inhibition in nutrient broth; format: cell-based; details: 200 ppm; PDB broth, 24 C; inhibition of growth determined photometrically after 72 hrs
# Pythium ultimum [1] = assay: Pythium ultimum (Damping off), liquid culture growth inhibition in potato dextrose broth; format: cell-based; details: 20 ppm, 24° C., inhibition of growth determined photometrically after 48 hours
# [2] = system: Erysiphe graminis f.sp. tritici; assay: Erysiphe graminis f.sp. tritici (wheat powdery mildew), wheat leaf segment assay, preventive; format: in vivo; details: 200 ppm; wheat leaf segments; assessed four days after inoculation
# Pythium ultimum [3] = assay: Pythium ultimum/cotton (damping-off on cotton), seed treatment application; details: seed treatment of cotton seeds cv. Sure Grow 747 sown into infected soil; emergence and number of plants that wilt and die
# Botrytis cinerea = Botrytis cinerea (grey mould), bean leaf disk assay, preventive; format: in vivo; details: 200 ppm; bean leaf disks; assessed four days after inoculation
# [4] = system: Puccinia recondita f.sp. tritici; assay: Puccinia recondita f.sp. tritici (wheat brown rust), wheat leaf segment assay, preventive; format: in vivo; details: 200 ppm; wheat leaf segments; assessed nine days after inoculation
# Septoria nodorum = Septoria nodorum (wheat glume blotch), wheat leaf segment assay, preventive; format: in vivo; details: 200 ppm; wheat leaf segments; assessed four days after inoculation
Compound,"control of fungal infection, Septoria tritici (Septoria tritici)","control of fungal infection, Pythium ultimum (Pythium ultimum [1])","control of fungal infection, Etysiphe graminis f.sp. tritici [2]",control of Pythium ultimum on cotton seeds (Pythium ultimum [3]),further results
"2-(3-Iodo-8-methyl-quinolin-6-yloxy)-N-(3-methoxy-methoxyimino-1,1-dimethyl-propyl)-2-methylsulfanyl-acetamide [Compound No. 102]",≥ 60%,at least 60%,≥ 60%,,
"CON=CC(C)(C)NC(=O)C(Oc1ccc2ncc(Br)cc2c1)SC (stereo not drawn) [Compound No. 15, 2-(3-Bromo-quinolin-6-yloxy)-N-(2-methoxyimino-1,1-dimethyl-ethyl)-2-methylsulfanyl-acetamide]",,,,at least 15%,
"C#Cc1cnc2ccc(OC(SC)C(=O)NC(C)(C)C=NOC)cc2c1 (stereo not drawn) [Compound No. 38, 2-(3-Ethynyl-quinolin-6-yloxy)-N-(2-methoxyimino-1,1-dimethyl-ethyl)-2-methylsulfanyl-acetamide]",,,,at least 15%,
"CON=C(C)CC(C)(C)NC(=O)C(Oc1ccc2ncc(I)cc2c1)SC (stereo not drawn) [Compound No. 49, 2-(3-iodo-quinolin-6-yloxy)-N-{3-[(E & Z)-methoxy-imino]-1,1-dimethyl-butyl}-2-methylsulfanyl-acetamide]",≥ 60%,,≥ 60%,,
"CON=CC(C)(C#N)NC(=O)C(Oc1ccc2ncc(Br)cc2c1)SC (stereo not drawn) [Compound No. 53, 2-(3-bromo-quinolin-6-yloxy)-N-(1-cyano-2-methoxyimino-1-methyl-ethyl)-2-methylsulfanyl acetamide]",≥ 60%,at least 60%,≥ 60%,,
"C#Cc1cnc2ccc(OC(SC)C(=O)NC(C)(C#N)C=NOC)cc2c1 (stereo not drawn) [Compound No. 59, N-(1-Cyano-2-methoxyimino-1-methyl-ethyl)-2-(3-ethynyl-quinolin-6-yloxy)-2-methylsulfanyl-acetamide]",,,,at least 15%,
"C#Cc1cnc2ccc(OC(CC)C(=O)NC(C)(C#N)C=NOC)cc2c1 (stereo not drawn) [Compound No. 61, N-(1-Cyano-2-methoxyimino-1-methyl-ethyl)-2-(3-ethynyl-quinolin-6-yloxy)-butyramide]",,,,at least 15%,
"CON=CC(C)(C)NC(=O)C(Oc1ccc2c(cc(Br)c[n+]2[O-])c1)SC (stereo not drawn) [Compound No. 108, 2-(3-Bromo-1-oxy-quinolin-6-yloxy)-N-(2-methoxyimino-1,1-dimethyl-ethyl)-2-methylsulfanyl-acetamide]",≥ 60%,at least 60%,≥ 60%,,"control of fungal infection, Botrytis cinerea (Botrytis cinerea): ≥ 60%"
"C=CCON=C(Cc1ccccc1)C(C)(C)NC(=O)C(Oc1ccc2ncc(Br)cc2c1)SC (stereo not drawn) [Compound No. 123, N-{2-[(E or Z)-Allyloxyimino]-1,1-dimethyl-3-phenyl-propyl}-2-(3-bromo-quinolin-6-yloxy-2-methylsulfanyl-acetamide]",≥ 60%,,,,"control of fungal infection, Botrytis cinerea (Botrytis cinerea): ≥ 60%"
"C#Cc1cnc2ccc(OC(CC)C(=O)NC(C)(C)C=NOC)cc2c1 (stereo not drawn) [Compound No. 131, 2-(3-Ethynyl-quinolin-6-yloxy)-N-(2-methoxyimino-1,1-dimethyl-ethyl)-butyramide]",,,,at least 15%,
C#Cc1cnc2c(C)cc(OC(CC)C(=O)NC(C)(C)C=NOCC)cc2c1 (stereo not drawn) [Compound No. 135],≥ 60%,at least 60%,≥ 60%,,"control of fungal infection, Puccinia recondite f.sp. tritici [4]: ≥ 60%; control of fungal infection, Septoria nodorum (Septoria nodorum): ≥ 60%"
